# Primary screen of a compound library

Amino acid sequences for entries named in this document (tags omitted).
UniProt P9WPC5, whole entry: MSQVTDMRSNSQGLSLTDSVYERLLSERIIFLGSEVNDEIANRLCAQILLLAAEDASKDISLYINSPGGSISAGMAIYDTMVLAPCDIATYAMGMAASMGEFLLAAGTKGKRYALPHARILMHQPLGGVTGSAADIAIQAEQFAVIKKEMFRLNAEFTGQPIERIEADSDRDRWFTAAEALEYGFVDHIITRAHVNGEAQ
UniProt P9WPC3, whole entry partner: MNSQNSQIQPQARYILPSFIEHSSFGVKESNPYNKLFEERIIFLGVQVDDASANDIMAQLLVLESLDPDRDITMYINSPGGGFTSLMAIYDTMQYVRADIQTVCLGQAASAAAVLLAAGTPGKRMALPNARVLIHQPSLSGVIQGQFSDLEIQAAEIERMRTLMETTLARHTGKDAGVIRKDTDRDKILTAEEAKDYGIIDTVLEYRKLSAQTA
UniProt P9WFT3, whole entry: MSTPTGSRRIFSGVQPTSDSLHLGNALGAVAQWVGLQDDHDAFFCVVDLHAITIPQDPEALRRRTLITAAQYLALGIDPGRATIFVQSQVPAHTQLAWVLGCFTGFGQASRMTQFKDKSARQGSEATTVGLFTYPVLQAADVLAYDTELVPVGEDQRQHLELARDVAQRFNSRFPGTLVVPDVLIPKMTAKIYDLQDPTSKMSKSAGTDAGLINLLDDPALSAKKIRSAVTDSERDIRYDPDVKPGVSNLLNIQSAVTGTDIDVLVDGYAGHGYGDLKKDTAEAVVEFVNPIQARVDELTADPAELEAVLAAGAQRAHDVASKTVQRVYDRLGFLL
UniProt P9WNZ1, whole entry: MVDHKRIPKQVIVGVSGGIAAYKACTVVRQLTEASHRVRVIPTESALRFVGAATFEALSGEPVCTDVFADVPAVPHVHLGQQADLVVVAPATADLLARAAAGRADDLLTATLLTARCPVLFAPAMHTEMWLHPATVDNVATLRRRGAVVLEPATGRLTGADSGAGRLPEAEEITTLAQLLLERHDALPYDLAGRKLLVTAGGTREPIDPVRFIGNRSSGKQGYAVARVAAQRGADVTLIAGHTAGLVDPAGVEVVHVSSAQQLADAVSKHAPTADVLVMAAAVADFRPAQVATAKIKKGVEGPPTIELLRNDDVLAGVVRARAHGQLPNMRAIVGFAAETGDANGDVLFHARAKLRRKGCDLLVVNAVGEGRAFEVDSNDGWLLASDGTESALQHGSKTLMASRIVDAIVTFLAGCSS

A: 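Protease assay of ClpP1P2, read by the AMC dye that it sets free. Target: ClpP1P2, Mycobacterium tuberculosis (UniProt P9WPC5 and UniProt P9WPC3). Concentration: 50 µM. Higher reads as stronger inhibition, judged from the few compounds that gave an IC50. Most other retested compounds had strongly negative values. Of about 69,000 compounds tested this way, about 10 (0.015%) reached 50% or more in at least one test.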
B: 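Assay of Toxoplasma gondii numbers, read through their beta-galactosidase reporter with a colour substrate. Compounds at 10 µM. The record gives no direction; the compounds picked for IC50 retests had high values, so higher reads as fewer parasites. Size under these conditions: about 67,000 compounds, about 260 of them at 50% or above in at least one test.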
C: 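Tryptophan-tRNA ligase, Mycobacterium tuberculosis (UniProt P9WFT3). Enzyme assay of tryptophanyl-tRNA synthetase; the read-out is not stated. Tested at 10 µM. Direction is not recorded; retested compounds ran higher, which suggests that high means inhibition. Of about 65,000 compounds tested this way, about 64 (0.098%) reached 50% or more in at least one test.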
D: 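Enzyme assay of CoaBC with a phosphate dye (Biomol Green) read at 650 nm. Target: Coenzyme A biosynthesis protein CoaBC, Mycobacterium tuberculosis (UniProt P9WNZ1). Concentration: 30 µM. Higher reads as stronger inhibition, judged from the few compounds that gave an IC50. Most strong results did not repeat in a second test. About 67,000 compounds were tested under these conditions; 0.06% (about 40) showed 50% or more at least once.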

The filed quantity is “Percent Effect” (%). The record does not define 0% and 100%; most values in the screen are far below 50% and negative numbers occur (in some assays of this library far below -100). Compounds were drawn at random from those tested, without regard to their results.

Result for Cc1noc(C)c1CN1C[C@@H](C(=O)O)[C@H](c2ccccc2)C1 was A: -3.433%; B: -10.99%; C: 5.12%; D: -4.472%. For Cc1cc(CSCc2cc(C)on2)on1 the result was A: -2.251%; B: 2.899%; C: -11.32%; D: 2.479%. COCC(=O)N1CCOC(c2cccc(-c3cncnc3)n2)C1 (configuration not stated) gave A: 1.842%; B: -0.5628%; D: 3.632%. CC(C)CCNC(=O)c1ccc(-c2ccco2)[nH]c1=O read A: -16.45%; B: 3.308%; C: -6.133%; D: -3.226%. For Cc1ccc(CNC2(Cc3cc(-c4ccccn4)on3)COC2)o1 the result was A: -7.231%; B: 11.22%; C: 2.352%; D: 2.87%.

For Cc1cccc2c1nc1n2[C@@H](CNC(=O)CCC(=O)O)COC1 the result was A: -3.832%; B: 2.554%; C: -1.138%; D: -0.6623%. With CCOC(=O)c1n[nH]cc1CN1CCOC(Cc2ccccc2)C1 (configuration not stated) the screen gave A: -11.83%; B: 11.79%; C: 0.5757%; D: -3.313%. Result for O=C(C1CCC2(CCN(CC3CCOCC3)CC2)O1)N1CCCCO1 (configuration not stated) was A: -12.46%; C: 5.578%; D: 7.125%. [H][C@@]12COC[C@H](C(=O)N3CCOCC3)[C@]1([H])CN(CC1CCC1)C2 gave B: -3.182%. CCn1ncnc1CN1CCC(CNC(=O)c2cccc(C)n2)C1 (configuration not stated) read A: -6.239%; B: 3.46%; C: 4.696%; D: 2.527%.

With CN(C)CCN1Cc2ncn(C)c2C(COCC(=O)N(C)C)C1 (configuration not stated) the screen gave A: -6.63%; B: 4.233%; C: -5.354%; D: 16.3%. Result for OC1(CN2CCCC2)COCCN(c2ncnc3[nH]ccc23)C1 (configuration not stated) was A: -3.847%; B: -4.797%; C: 0.08842%; D: -9.504%. CCc1n[nH]c(C2CN(C(=O)CCc3cccs3)CCO2)n1 (configuration not stated) gave A: -4.132%; B: 9.168%; C: 3.996%; D: 2.611%. For Cc1cc(C)n(-c2ccc(C(=O)NCC(CO)Cc3ccco3)cc2)n1 (configuration not stated) the result was A: -4.465%; B: -4.332%; C: 1.41%; D: -2.469%. For O=C(NCCCN1CCC(OC2CCCCC2)CC1)C1CCCC1 the result was A: 3.368%; B: 2.717%; C: -4.907%; D: -8.228%.

For Cc1cc(NC(=O)N2CCOC(C(N)=O)C2)ccc1Br (configuration not stated) the result was A: 5.664%; B: -22.27%; C: 3.004%; D: 4.039%. CCn1nc2c(cc1=O)CN(CC(=O)Nc1nncs1)CC2 gave A: -7.038%; B: -19.02%; C: -5.076%; D: 1.673%. Result for CCN(C)c1ncnc2c1CCN(CC1CCOC1)CC2.O=C(O)C(F)(F)F (configuration not stated) was B: 0.05059%.

Once more, the final 2:

{"compound": "CCn1nc2c(cc1=O)CN(CC(=O)Nc1nncs1)CC2", "A": -7.038, "B": -19.02, "C": -5.076, "D": 1.673}
{"compound": "CCN(C)c1ncnc2c1CCN(CC1CCOC1)CC2.O=C(O)C(F)(F)F", "stereo": "configuration not stated", "B": 0.05059}

Data taken from ChEMBL document CHEMBL3988442, “University of Dundee, Small-Polar-MMV Screening Library” (2021).